2 molecules from patent publication US20020142016A1, “Stable skin care product containing a retinoid and a retinoid booster system in a dual compartment package” (priority 2000, published 2002) can be followed below.

For series [1], the system named is retinoic acid oxidation (cytochrome P450 systems). In words: Assay for NADPH dependent retinoic acid oxidation in rat liver microsomes. To be noted: Sprague Dawley, pH 7.4, probe retinoic acid, 10 μM. Format: biochemical. On the procedure: The resulting homogenate was successively centrifuged for 30 min. at 10,000 g, 30 min. at 20,000 g, and 15 min. at 30,000 g, and the resulting supernatant was ultracentrifuged for 80 min. at 105,000 g. […] Protein concentrations were determined as described above.
Prepare the following assay buffer and store at 4° C.: 0.1 M PO4/0.1 mM EDTA/ 0.5 mM MgCl2, pH 7.4. On the day of the assay, prepare a 60 mM NADPH solution in buffer.
Quench with acidified ethanol/ BHT and extract with hexane/BHT as described above.
The chromatography instrumentation consisted of a Waters 600 gradient controller/pump, a Waters 996 Photodiode Array detector and a Waters 474 Scanning Fluorescence detector. Two HPLC protocols were used for retinoid analysis. […] The eluate was monitored for absorbance at 325nm and fluorescence at 325ex/480em. […] 189, 136-145 (1990). This system consisted of a 20 min. linear gradient from 68:32 (v/v) methanol/water containing 10 mM ammonium acetate to 4:1 (v/v) methanol:dichloromethane followed by a 5 min. hold at a flow rate of 1 mL/min.

Series [2] deals with TGase I. Kind of series: Transglutaminase (TGase I ELISA) assay in cultured keratinocytes with retinol. The series is classed as cell-based. Particulars: Keratinocyte; concentration of booster which, with constant retinol 10^-7 M, inhibits TGase by 50%; read-out: Overall TG (IC 50).

Consider `Clc1ccccc1C(c1ccccc1)(c1ccccc1)n1ccnc1` [Clotrimazole], for which the inhibition at 60 min, 100 µM in series [1] is 85%.

In the case of `Clc1ccc(COC(Cn2ccnc2)c2ccc(Cl)cc2Cl)c(Cl)c1` (centres unmarked) [Miconazole], the IC50 in series [2] worked out at 278 nM.
